Test results: article doi:10.1101/2023.01.10.523387
No constants are given. Whether binding was seen depends on the method and setting. Binding seen in cells or lysates may run through a third protein. These calls come from enrichment with a bait or labelling near it, and not all partners need be listed.

Biological target: N-terminally HA-tagged SIRV2 gp37 encoded within the viral genome (SIRV2)
Assay: affinity purification with mass spectrometry

B1: host protein lysine methyltransferase SiL_1451 (endogenous) (enzyme, UniProt F0NBH8 1-161)
chain: MSYVPHVPYVPTPEKVVRRMLEIAKVSQDDIVYDLGCGDGRIIITAAKDFNVKKAVGVEINDERIREALANIEKNGVTGRASIVKGNFFEVDISEATVVTMFLLTNVNEMLKPKLEKELKPGTRVVSHEFEIRGWNPKEVIKVEDGNMNHTVYLYVIGEHK
In the case of B1, the binding is reported as “binds”.
